According to publication PMC12463075:
No constants are given. Whether binding was seen depends on the method and setting. Binding seen in cells or lysates may run through a third protein. Some binding calls cover weakened binding; strength is not graded here. Sequences can lack the tags named with a protein.

By UniProt entry, the sequences of proteins in these tests, tags left out.
UniProt P43490: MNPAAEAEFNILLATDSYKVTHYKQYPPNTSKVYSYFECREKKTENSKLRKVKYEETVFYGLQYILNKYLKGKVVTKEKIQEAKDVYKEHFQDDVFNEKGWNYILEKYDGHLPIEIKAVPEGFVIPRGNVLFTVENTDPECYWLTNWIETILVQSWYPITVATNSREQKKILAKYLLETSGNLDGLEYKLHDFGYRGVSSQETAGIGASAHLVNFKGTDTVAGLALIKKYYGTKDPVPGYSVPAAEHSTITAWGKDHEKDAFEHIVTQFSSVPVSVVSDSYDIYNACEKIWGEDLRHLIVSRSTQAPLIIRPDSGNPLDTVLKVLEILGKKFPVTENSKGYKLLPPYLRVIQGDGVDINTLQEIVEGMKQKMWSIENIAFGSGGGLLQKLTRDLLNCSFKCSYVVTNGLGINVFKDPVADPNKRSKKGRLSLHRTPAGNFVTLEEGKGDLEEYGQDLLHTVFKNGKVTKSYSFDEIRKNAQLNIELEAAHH
UniProt Q99KQ4: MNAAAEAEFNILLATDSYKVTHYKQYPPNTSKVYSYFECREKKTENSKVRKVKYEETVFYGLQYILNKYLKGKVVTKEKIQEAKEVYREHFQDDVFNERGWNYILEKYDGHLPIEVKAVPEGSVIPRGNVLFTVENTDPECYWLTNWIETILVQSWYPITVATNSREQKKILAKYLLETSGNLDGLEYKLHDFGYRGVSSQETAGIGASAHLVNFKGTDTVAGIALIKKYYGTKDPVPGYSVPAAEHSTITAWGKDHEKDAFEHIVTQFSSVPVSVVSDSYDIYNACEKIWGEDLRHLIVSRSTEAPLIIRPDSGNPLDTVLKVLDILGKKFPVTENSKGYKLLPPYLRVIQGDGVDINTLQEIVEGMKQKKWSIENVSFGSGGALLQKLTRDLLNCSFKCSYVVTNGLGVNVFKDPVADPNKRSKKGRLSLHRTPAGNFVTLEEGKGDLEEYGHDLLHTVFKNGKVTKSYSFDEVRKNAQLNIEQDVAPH

Target: T1, HA-tagged A1BG (UniProt P04217)
T1 sequence: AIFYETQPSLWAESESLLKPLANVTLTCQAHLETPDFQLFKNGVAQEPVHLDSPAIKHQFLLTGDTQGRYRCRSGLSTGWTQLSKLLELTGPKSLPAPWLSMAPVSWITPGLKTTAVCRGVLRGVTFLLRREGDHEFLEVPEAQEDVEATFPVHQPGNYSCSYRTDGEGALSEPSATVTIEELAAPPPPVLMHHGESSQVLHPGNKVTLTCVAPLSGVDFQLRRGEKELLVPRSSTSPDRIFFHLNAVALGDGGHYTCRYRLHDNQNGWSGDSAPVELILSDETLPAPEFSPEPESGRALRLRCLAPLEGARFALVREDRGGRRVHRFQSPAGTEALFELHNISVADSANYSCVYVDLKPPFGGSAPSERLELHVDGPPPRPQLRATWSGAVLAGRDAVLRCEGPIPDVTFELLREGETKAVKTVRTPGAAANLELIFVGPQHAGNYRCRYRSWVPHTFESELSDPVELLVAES
Test: co-IP; lysates of 1 × 10^7 MNNG, U2OS and K7M2 cells; IP antibody (anti-HA or anti-NAMPT) with Protein A/G beads; Western blot; IgG as negative control

binding	Substance
binds	nicotinamide phosphoribosyltransferase (NAMPT), human, endogenous (from UniProt P43490 1-491) (enzyme)
binds	nicotinamide phosphoribosyltransferase (NAMPT), mouse, endogenous (from UniProt Q99KQ4 1-491) (enzyme)
